Test results: patent US7838676B2, “Beta-secretase modulators and methods of use” (Amgen Inc., priority 2005, dated 2010)
Some of these results come from one statement about several compounds together.

Protein sequences, listed by entry. Tags and fused reporters are not part of them. Residues count along the entry.
UniProt P56817, 46-501, species assumed: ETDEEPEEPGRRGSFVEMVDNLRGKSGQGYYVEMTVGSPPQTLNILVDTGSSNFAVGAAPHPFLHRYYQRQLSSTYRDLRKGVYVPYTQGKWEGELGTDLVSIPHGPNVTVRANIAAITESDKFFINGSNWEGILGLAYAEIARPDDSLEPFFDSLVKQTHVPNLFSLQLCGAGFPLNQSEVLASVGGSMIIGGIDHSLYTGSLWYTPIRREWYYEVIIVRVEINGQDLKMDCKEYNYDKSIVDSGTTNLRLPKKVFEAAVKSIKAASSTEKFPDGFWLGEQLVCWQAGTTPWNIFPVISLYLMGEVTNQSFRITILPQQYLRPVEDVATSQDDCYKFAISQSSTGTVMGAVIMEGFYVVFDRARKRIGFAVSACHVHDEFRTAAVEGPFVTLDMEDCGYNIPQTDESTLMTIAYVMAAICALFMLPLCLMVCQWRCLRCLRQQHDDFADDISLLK

Target: BACE (Homo sapiens, UniProt P56817)
Experiment: In Vitro Enzymatic BACE FRET (Fluorescence Resonance Energy Transfer) Assay
Format: biochemical
Conditions: enzyme 0.2 nM, FRET substrate 50 nM, pH 4.2

Compound: CCc1ccc2c(c1)[C@@H](NC[C@@H](O)[C@H](Cc1ccccc1)NC(=O)c1cc(-c3nccs3)nc(C3CCCC3)c1)CC1(CCCC1)O2 [Example 151, 2-cyclopentyl-N-((1S,2R)-3-(((4S)-6-ethyl-3,4-dihydrospiro[chromene-2,1′-cyclo-pentan]-4-yl)amino)-2-hydroxy-1-(phenylmethyl)propyl)-6-(1,3-thiazol-2-yl)-4-pyridinecarboxamide]
- IC50: ≤ 5 µM

Compound: CCc1ccc2c(c1)[C@@H](NC[C@@H](O)[C@H](Cc1ccccc1)NC(=O)c1cc(N3CCCC3=O)ccc1OC)CC1(CCCC1)O2 [Example 30, N-((2S,3R)-4-((S)-6-ethyl-2,2-spirocyclopentylchroman-4-ylamino)-3-hydroxy-1-phenylbutan-2-yl)-2-methoxy-5-(2-oxopyrrolidin-1-yl)benzamide]
- IC50: ≤ 5 µM

Compound: CCc1ccc2c(c1)[C@@H](NC[C@@H](O)[C@H](Cc1ccccc1)NC(=O)c1cc(Cl)cc3cc[nH]c13)CC1(CCCC1)O2 [Example 165, 5-chloro-N-((2S,3R)-4-((S)-6-ethyl-2,2-spirocyclopentylchroman-4-ylamino)-3-hydroxy-1-phenylbutan-2-yl)-1H-indole-7-carboxamide]
- IC50: ≤ 5 µM

Compound: O=C(N[C@@H](Cc1ccccc1)[C@H](O)CN[C@H]1CC2(CCC2)Oc2ccc(Br)cc21)c1ccc2cccnc2n1 [Example 77, N-((1S,2R)-3-(((4S)-6-bromo-3,4-dihydrospiro[chromene-2,1′-cyclobutan]-4-yl)amino)-2-hydroxy-1-(phenylmethyl)propyl)-1,8-naphthyridine-2-carboxamide]
- IC50: ≤ 5 µM

Compound: CCc1ccc2c(c1)[C@@H](NC[C@@H](O)[C@H](Cc1ccccc1)NC(=O)c1ccccc1)CC(C)(C)O2 [Example 48, N-((1S,2R)-3-(((4S)-6-ethyl-2,2-dimethyl-3,4-dihydro-2H-chromen-4-yl)amino)-2-hydroxy-1-(phenylmethyl)propyl)benzamide]
- IC50: ≤ 5 µM

Compound: N-((2S,3R)-4-((S)-6-ethyl-3,4-dihydrospiro[chromene-2,1′-cyclobutyl) [Example 112]
- IC50: ≤ 5 µM

Compound: CCc1ccc2c(c1)[C@@H](NC[C@@H](O)[C@H](Cc1ccccc1)NC(=O)c1cnoc1C)CC1(CCCC1)O2 [Example 128, N-((2S,3R)-4-((S)-6-ethyl-2,2-spirocyclopentylchroman-4-ylamino)-3-hydroxy-1-phenylbutan-2-yl)-5-methylisoxazole-4-carboxamide]
- IC50: ≤ 5 µM

Compound: CC(C)Nc1cc(C(=O)N[C@@H](Cc2ccccc2)[C@H](O)CN[C@H]2c3cc(Br)ccc3OC(C)(C)[C@@H]2O)c(F)c(N2CCCCS2(=O)=O)c1 [Example 73, N-((1S,2R)-3-(((3R,4S)-6-bromo-3-hydroxy-2,2-dimethyl-3,4-dihydro-2H-chromen-4-yl)amino)-2-hydroxy-1-(phenylmethyl)propyl)-3-(1,1-dioxido-1,2-thiazinan-2-yl)-2-fluoro-5-((1-methylethyl)amino)benzamide]
- IC50: ≤ 5 µM

Compound: CCc1ccc2c(c1)[C@@H](NC[C@@H](O)[C@H](Cc1ccccc1)NC(=O)c1cc(Cl)nc(N3CCCCC3)c1)CC1(CCCC1)O2 [Example 175, 2-chloro-N-((2S,3R)-4-((S)-6-ethyl-2,2-spirocyclopentylchroman-4-ylamino)-3-hydroxy-1-phenylbutan-2-yl)-6-(piperidin-1-yl) isonicotinamide]
- IC50: ≤ 5 µM

Compound: CC1(C)Cc2ccc(O[C@H]3CCOC3)cc2[C@@H](NC[C@@H](O)[C@H](Cc2ccccc2)NC(=O)c2ccc(F)c(N3CCCC3=O)c2)C1 [Example 103, N-((1S,2R)-3-(((1S)-3,3-dimethyl-7-((3S)-tetrahydro-3-furanyloxy)-1,2,3,4-tetrahydro-1-naphthalenyl)amino)-2-hydroxy-1-(phenylmethyl)propyl)-4-fluoro-3-(2-oxo-1-pyrrolidinyl)benzamide]
- IC50: ≤ 5 µM

Compound: Cc1cnc2c(c1)[C@@H](NC[C@@H](O)[C@H](Cc1cc(F)cc(F)c1)NC(=O)c1ccc(N3CCCC3=O)c(F)c1)CC1(CCC1)C2 [Example 146, N-((1S,2R)-1-((3,5-difluorophenyl)methyl)-2-hydroxy-3-(((5′S)-3′-methyl-5′,8′-dihydro-6′H-spiro[cyclobutane-1,7′-quinolin]-5′-yl)amino)propyl)-3-fluoro-4-(2-oxo-1-pyrrolidinyl)benzamide]
- IC50: ≤ 5 µM

Compound: O=C(N[C@@H](Cc1ccccc1)[C@H](O)CN[C@H]1CC2(CCC2)Oc2ccc(N3CCOCC3)cc21)c1cccc(N2CCCC2=O)c1F [Example 125, 2-fluoro-N-((1S,2R)-2-hydroxy-3-(((4S)-6-(4-morpholinyl)-3,4-dihydrospiro[chromene-2,1′-cyclobutan]-4-yl)amino)-1-(phenylmethyl)propyl)-3-(2-oxo-1-pyrrolidinyl)benzamide]
- IC50: ≤ 5 µM

Compound: CCc1ccc2c(c1)C(NCC(O)C(Cc1ccccc1)NC(=O)c1cc(C)nc(N3CCCC(C)C3)c1)CC(C)(C)O2 [Example 140, N-((1S,2R)-3-(((4S)-6-ethyl-2,2-dimethyl-3,4-dihydro-2H-chromen-4-yl)amino)-2-hydroxy-1-(phenylmethyl)propyl)-2-methyl-6-((3S)-3-methyl-1-piperidinyl)-4-pyridinecarboxamide and ′N-((1S,2R)-3-(((4S)-6-ethyl-2,2-dimethyl-3,4-dihydro-2H-chromen-4-yl)amino)-2-hydroxy-1-(phenylmethyl)propyl)-2-methyl-6-((3R)-3-methyl-1-piperidinyl)-4-pyridinecarboxamide]
- IC50: ≤ 5 µM

Compound: CCc1ccc2c(c1)[C@@H](NC[C@@H](O)[C@H](Cc1ccccc1)NC(=O)c1ccccc1N)CC1(CCCC1)O2 [Example 31, 2-amino-N-((2S,3R)-4-((S)-6-ethyl-2,2-spirocyclopentylchroman-4-ylamino)-3-hydroxy-1-phenylbutan-2-yl)benzamide]
- IC50: ≤ 5 µM

Compound: CCc1ccc2c(c1)[C@@H](NC[C@@H](O)[C@H](Cc1ccccc1)NC(=O)c1cccc(N3CCCC3=O)c1F)CC(C)(C)O2 [Example 141, N-((1S,2R)-3-(((4S)-6-ethyl-2,2-dimethyl-3,4-dihydro-2H-chromen-4-yl)amino)-2-hydroxy-1-(phenylmethyl)propyl)-2-fluoro-3-(2-oxo-1-pyrrolidinyl)benzamide]
- IC50: ≤ 5 µM

Compound: CCc1ccc2c(c1)C(NCC(O)C(Cc1ccccc1)NC(=O)c1cc(-c3ccc(OC)cc3)nc(N3CCCC(C)C3)c1)CC1(CCCC1)O2 [Example 190, N-((2S,3R)-4-((S)-6-ethyl-2,2-spirocyclopentylchroman-4-ylamino)-3-hydroxy-1-phenylbutan-2-yl)-2-(4-methoxyphenyl)-6-(3-methylpiperidin-1-yl)isonicotinamide]
- IC50: ≤ 5 µM

Compound: CCc1cnc2c(c1)[C@@H](NC[C@@H](O)[C@H](Cc1ccccc1)NC(=O)c1ccc(F)c(N3CCCC3=O)c1)CC1(CCC1)O2 [Example 102, N-((1S,2R)-3-(((4′S)-6′-ethyl-3′,4′-dihydrospiro[cyclobutane-1,2′-pyrano[2,3-b]pyridin]-4′-yl)amino)-2-hydroxy-1-(phenylmethyl)propyl)-4-fluoro-3-(2-oxo-1-pyrrolidinyl)benzamide]
- IC50: ≤ 5 µM

Compound: CCc1ccc2c(c1)[C@@H](NC[C@@H](O)[C@H](Cc1ccccc1)NC(=O)c1cc(Cl)nc(NC(=O)CCCCO)c1)CC1(CCCCC1)O2 [Example 45, 2-chloro-N-((2S,3R)-4-((S)-6-ethyl-2,2-spirocyclohexylchroman-4-ylamino)-3-hydroxy-1-phenylbutan-2-yl)-6-(5-hydroxypentanamido) isonicotinamide]
- IC50: ≤ 5 µM

Compound: 2-chloro-N-((1S,2R)-3-(((4S)-6-ethyl-2,2-dimethyl-3,4-dihydro-2H-chromen-4-yl)amino)-2-hydroxy-1-(phenylmethyl)propyl)-6-((3S)-3-methyl-1-piperidinyl)-4-pyridinecarboxamide and ′2-chloro-N-((1S,2R)-3-(((4S)-6-ethyl-2,2-dimethyl-3,4-dihydro-2H-chromen-4-yl) amino)-2-hydroxy-1-(phenylmethyl)propyl)-6-((3R)-3-methyl-1-piperidinyl)-4-pyridinecarboxamide [Example 139]
- IC50: ≤ 5 µM

Compound: CCc1ccc2c(c1)[C@@H](NC[C@@H](O)[C@H](Cc1ccccc1)NC(=O)c1cc(C3CCCC3)cc(-n3cccc3C#N)c1)CC(C)(C)O2 [Example 26, 3-(2-cyano-1H-pyrrol-1-yl)-5-cyclopentyl-N-((1S,2R)-3-(((4S)-6-ethyl-2,2-dimethyl-3,4-dihydro-2H-chromen-4-yl)amino)-2-hydroxy-1-(phenylmethyl)propyl)benzamide]
- IC50: ≤ 5 µM

Compound: CC1(C)Oc2ccc(Br)cc2[C@@H](NC[C@@H](O)[C@H](Cc2ccccc2)NC(=O)c2cccc(N3CCCC3=O)c2F)[C@@H]1O [Example 72, N-((1S,2R)-3-(((3S,4R)-6-bromo-3-hydroxy-2,2-dimethyl-3,4-dihydro-2H-chromen-4-yl)amino)-2-hydroxy-1-(phenylmethyl)propyl)-2-fluoro-3-(2-oxo-1-pyrrolidinyl)benzamide]
- IC50: ≤ 5 µM

Compound: CCc1ccc2c(c1)[C@@H](NC[C@@H](O)[C@H](Cc1ccccc1)NC(=O)c1ccccc1F)CC1(CCCC1)O2 [Example 29, N-((2S,3R)-4-((S)-6-ethyl-2,2-spirocyclopentylchroman-4-ylamino)-3-hydroxy-1-phenylbutan-2-yl)-2-fluorobenzamide]
- IC50: ≤ 5 µM

Compound: CC1CCCN(c2cc(C(=O)NC(Cc3ccccc3)C(O)CNC3CC4(CCC4)Oc4ccccc43)ccn2)C1 [Example 88, N-((2S,3R)-4-((S)-2,2-spirocyclobutylchroman-4-ylamino)-3-hydroxy-1-phenylbutan-2-yl)-2-(3-methylpiperidin-1-yl)isonicotinamide]
- IC50: ≤ 5 µM

Compound: CCc1ccc2c(c1)C(NCC(O)C(Cc1ccccc1)NC(=O)c1cc(OC)nc(N3CCC(c4ccccn4)C3)c1)CC1(CCCC1)O2 [Example 181, N-((2S,3R)-4-((S)-6-ethyl-2,2-spirocyclopentylchroman-4-ylamino)-3-hydroxy-1-phenylbutan-2-yl)-2-methoxy-6-(3-(pyridin-2-yl)pyrrolidin-1-yl)isonicotinamide]
- IC50: ≤ 5 µM

Compound: CCc1ccc2c(c1)[C@@H](NC[C@@H](O)[C@H](Cc1ccccc1)NC(=O)c1cc3ccccc3[nH]1)CC1(CCCC1)O2 [Example 131, N-((2S,3R)-4-((S)-6-ethyl-2,2-spirocyclopentylchroman-4-ylamino)-3-hydroxy-1-phenylbutan-2-yl)-1H-indole-2-carboxamide]
- IC50: ≤ 5 µM
